# Counter-ions that a name gives are not always drawn. Some of the results follow. Hit calls seldom repeat between salt and free forms of one compound.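 Kinases were expressed as nanoluciferase fusions in K562 cells and luminescence was read every 4 h between 2 and 18 h as percent of control, DMSO set to 100% and a positive control to 0%. A time point counts as decreased when the signal drops significantly (2 sigma). The hit call is the authors' own, does not follow from the count of time points alone, and its rule is not shown.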
# Chains of the proteins cited; added tags and fusions are not shown. Lines headed by an entry give the natural chain unless they say otherwise; changes in a name come on top.
# UniProt P21860, whole entry: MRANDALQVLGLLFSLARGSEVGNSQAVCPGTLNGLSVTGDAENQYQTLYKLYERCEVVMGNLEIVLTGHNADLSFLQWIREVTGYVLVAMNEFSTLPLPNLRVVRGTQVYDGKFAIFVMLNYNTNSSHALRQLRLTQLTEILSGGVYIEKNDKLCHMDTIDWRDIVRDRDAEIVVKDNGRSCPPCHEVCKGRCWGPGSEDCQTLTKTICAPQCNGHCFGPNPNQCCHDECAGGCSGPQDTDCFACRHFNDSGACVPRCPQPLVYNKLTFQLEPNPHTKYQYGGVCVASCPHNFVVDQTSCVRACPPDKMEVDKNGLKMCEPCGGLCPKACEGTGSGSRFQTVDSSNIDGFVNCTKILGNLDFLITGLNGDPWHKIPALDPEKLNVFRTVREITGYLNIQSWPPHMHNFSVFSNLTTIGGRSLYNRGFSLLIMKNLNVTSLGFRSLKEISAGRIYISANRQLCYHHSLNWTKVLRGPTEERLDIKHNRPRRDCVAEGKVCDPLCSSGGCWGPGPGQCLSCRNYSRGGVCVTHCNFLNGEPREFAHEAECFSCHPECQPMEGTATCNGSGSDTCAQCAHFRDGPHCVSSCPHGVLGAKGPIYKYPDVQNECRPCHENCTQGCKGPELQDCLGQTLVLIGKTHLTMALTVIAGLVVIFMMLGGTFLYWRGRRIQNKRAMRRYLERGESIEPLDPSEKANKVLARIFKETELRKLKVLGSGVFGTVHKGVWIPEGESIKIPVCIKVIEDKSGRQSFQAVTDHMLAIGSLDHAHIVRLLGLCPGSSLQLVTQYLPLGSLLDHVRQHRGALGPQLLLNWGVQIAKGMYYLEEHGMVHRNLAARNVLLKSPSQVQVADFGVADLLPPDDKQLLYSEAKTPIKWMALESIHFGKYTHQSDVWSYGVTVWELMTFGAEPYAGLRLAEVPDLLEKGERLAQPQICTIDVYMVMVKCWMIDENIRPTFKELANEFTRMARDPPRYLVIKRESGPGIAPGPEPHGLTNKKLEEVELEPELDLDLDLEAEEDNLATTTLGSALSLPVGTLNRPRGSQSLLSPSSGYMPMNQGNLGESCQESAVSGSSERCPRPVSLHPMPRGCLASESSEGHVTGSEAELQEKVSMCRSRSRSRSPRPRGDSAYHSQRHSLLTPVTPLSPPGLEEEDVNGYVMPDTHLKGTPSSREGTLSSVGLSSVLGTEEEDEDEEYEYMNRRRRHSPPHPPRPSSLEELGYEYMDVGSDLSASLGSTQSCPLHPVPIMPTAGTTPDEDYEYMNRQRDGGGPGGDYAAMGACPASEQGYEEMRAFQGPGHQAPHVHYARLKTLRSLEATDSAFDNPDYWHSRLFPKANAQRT
# UniProt Q15303, whole entry R711C: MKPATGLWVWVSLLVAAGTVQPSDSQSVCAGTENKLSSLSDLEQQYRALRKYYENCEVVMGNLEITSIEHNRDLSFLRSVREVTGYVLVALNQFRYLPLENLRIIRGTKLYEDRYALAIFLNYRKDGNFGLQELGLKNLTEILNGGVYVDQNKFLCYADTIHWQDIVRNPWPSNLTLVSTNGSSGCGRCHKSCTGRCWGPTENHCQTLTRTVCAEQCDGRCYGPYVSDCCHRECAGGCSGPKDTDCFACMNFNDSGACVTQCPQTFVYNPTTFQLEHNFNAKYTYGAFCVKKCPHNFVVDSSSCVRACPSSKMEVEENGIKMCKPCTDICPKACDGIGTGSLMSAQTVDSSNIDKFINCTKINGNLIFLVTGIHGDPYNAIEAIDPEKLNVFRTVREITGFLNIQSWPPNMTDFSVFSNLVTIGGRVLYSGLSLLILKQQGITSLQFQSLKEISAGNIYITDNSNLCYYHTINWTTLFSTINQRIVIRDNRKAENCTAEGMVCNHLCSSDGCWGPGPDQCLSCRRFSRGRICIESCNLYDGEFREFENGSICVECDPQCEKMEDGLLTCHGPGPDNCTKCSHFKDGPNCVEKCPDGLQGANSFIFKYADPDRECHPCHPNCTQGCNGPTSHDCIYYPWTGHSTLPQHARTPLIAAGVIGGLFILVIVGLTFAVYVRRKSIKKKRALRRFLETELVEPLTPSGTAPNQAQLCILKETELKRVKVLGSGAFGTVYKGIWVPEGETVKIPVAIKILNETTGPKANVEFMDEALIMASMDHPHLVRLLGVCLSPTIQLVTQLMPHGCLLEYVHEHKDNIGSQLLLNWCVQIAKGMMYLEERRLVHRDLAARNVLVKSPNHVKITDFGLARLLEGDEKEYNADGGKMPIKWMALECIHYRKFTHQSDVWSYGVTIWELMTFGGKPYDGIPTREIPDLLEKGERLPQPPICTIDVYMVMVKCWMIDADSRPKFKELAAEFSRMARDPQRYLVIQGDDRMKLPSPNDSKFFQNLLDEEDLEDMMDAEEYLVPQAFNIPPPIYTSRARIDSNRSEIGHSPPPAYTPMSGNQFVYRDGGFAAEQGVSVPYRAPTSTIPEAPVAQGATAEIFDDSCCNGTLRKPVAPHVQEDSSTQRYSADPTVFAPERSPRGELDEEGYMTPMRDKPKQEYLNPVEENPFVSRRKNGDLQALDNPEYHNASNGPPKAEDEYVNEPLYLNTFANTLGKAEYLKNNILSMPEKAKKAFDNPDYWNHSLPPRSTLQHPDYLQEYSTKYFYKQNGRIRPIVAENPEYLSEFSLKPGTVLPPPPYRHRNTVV
# UniProt O75460: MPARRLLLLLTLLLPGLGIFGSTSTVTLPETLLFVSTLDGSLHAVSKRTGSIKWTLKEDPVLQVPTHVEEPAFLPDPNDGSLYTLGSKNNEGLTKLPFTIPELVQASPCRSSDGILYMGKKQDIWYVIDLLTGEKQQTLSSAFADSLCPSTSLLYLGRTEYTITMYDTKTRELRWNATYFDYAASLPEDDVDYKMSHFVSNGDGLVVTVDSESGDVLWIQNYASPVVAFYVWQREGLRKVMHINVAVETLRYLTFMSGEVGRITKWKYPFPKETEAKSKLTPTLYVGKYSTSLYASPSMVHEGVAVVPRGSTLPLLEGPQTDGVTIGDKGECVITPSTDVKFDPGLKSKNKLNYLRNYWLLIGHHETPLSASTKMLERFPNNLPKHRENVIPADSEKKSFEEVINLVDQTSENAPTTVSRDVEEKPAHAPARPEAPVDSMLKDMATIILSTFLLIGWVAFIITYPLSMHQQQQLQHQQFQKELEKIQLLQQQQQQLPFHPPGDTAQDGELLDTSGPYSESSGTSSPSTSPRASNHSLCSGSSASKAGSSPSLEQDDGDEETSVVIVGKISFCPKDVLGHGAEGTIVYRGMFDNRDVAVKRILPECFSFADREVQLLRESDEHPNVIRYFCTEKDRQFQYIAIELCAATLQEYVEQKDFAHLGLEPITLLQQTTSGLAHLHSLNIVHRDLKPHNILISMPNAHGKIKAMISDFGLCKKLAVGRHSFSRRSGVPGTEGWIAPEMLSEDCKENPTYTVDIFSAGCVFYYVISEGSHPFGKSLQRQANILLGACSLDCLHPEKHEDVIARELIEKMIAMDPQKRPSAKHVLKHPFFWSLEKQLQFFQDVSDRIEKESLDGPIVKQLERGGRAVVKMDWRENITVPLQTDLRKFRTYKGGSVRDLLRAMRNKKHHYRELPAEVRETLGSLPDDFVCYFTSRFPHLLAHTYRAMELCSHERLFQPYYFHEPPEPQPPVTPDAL
# UniProt P11362, whole entry, looked up: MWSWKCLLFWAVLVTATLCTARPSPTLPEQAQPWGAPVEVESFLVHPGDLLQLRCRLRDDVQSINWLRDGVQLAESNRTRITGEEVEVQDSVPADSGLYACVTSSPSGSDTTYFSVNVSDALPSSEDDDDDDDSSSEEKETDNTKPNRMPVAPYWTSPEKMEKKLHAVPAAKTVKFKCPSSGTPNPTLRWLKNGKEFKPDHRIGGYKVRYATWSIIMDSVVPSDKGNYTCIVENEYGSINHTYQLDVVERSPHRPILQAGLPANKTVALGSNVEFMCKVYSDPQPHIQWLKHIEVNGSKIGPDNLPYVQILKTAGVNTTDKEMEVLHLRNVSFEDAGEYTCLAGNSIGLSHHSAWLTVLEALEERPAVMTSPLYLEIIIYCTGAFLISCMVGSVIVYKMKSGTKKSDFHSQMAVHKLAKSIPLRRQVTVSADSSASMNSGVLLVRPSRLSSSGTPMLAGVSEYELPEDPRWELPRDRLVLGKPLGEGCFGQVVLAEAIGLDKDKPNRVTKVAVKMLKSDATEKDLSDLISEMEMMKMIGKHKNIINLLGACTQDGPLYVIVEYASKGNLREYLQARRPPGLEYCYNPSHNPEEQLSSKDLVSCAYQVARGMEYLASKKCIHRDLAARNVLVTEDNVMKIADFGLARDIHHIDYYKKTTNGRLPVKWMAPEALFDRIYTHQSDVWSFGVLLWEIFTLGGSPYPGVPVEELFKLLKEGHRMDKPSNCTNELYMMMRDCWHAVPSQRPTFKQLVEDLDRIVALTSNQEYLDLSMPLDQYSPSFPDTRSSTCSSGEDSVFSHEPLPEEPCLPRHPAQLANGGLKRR
# UniProt P21802, whole entry, looked up: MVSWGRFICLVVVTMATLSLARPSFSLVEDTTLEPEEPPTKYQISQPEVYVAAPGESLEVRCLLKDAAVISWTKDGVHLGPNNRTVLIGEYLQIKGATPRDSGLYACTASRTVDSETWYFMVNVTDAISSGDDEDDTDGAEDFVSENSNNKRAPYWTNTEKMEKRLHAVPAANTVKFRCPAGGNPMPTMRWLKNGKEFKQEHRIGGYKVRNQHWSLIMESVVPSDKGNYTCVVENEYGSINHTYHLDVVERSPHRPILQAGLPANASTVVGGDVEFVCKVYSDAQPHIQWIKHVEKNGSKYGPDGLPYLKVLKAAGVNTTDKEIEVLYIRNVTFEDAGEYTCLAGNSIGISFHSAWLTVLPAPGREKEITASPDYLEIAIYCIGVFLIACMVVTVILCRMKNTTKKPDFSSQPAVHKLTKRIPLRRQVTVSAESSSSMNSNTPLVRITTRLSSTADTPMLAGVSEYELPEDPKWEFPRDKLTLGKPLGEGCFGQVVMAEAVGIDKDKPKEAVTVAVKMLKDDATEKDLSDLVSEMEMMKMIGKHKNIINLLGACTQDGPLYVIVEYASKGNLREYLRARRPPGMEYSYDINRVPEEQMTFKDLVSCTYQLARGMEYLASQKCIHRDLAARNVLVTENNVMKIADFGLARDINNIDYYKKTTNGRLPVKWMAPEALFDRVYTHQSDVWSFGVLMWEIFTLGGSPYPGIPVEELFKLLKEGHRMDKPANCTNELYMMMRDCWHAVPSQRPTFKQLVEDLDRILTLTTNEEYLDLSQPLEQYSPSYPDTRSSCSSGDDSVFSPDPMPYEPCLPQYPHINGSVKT
# UniProt P22607, whole entry, looked up: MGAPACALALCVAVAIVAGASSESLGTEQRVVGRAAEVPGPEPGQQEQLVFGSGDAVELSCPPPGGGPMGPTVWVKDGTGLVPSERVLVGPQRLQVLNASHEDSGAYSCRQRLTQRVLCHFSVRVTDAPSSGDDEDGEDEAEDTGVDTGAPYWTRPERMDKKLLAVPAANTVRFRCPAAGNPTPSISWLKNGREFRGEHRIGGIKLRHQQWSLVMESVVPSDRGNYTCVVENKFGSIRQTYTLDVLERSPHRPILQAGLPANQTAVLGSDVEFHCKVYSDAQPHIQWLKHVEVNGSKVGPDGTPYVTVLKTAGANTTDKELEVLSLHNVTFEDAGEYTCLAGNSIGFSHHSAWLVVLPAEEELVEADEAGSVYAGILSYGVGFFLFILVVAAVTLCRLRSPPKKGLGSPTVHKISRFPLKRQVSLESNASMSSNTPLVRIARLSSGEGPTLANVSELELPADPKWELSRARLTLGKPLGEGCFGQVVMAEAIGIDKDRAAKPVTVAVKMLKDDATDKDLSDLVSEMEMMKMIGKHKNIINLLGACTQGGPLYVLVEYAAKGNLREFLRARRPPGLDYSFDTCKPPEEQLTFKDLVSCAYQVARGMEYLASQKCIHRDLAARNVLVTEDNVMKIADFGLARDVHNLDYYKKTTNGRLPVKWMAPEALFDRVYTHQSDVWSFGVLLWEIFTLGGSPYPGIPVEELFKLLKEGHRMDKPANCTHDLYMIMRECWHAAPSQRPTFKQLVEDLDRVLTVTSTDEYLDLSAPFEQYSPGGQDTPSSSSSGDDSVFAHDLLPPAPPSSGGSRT
# Experiments:
# Assay in all cases: number of time points (of 5) at which kinase-Nluc abundance scored as decreased, DMSO-normalised (count); higher = more persistent destabilization
# Conditions in all cases: K562; 2-18 h
# EGFR_L861Q = EGFR_L861Q (UniProt P00533)
# EGFR_T790M = EGFR_T790M (UniProt P00533)
# EPHA2 = EPHA2 (UniProt P29317)
# ERBB3 = ERBB3 (UniProt P21860)
# [1] = molecular target: ERBB4_R711C (clone: ERBB4_mut) (UniProt Q15303)
# ERN1 = ERN1 (UniProt O75460)
# FGFR1 = FGFR1 (UniProt P11362)
# FGFR2 = FGFR2 (UniProt P21802)
# FGFR3 = FGFR3 (UniProt P22607)
# FGR = FGR (UniProt P09769)
structure (smiles),measurement,setting,value
CNS(=O)(=O)C[C@H]1CC[C@H](N(C)c2[nH]cnc3nccc2-3)CC1 [Oclacitinib (maleate)] (10 µM),number of time points,EGFR_L861Q,0
same,number of time points,EGFR_T790M,0
same,number of time points,EPHA2,0
same,number of time points,ERBB3,0
same,number of time points,[1],0
same,number of time points,ERN1,0
same,number of time points,FGFR1,0
same,number of time points,FGFR2,0
same,number of time points,FGFR3,0
same,number of time points,FGR,0
CCc1ccc(NC(=O)Nc2ccccc2)cc1 (10 µM),number of time points,EGFR_L861Q,0
same,number of time points,EGFR_T790M,0
same,number of time points,EPHA2,0
same,number of time points,ERBB3,0
same,number of time points,[1],0
same,number of time points,ERN1,0
same,number of time points,FGFR1,0
same,number of time points,FGFR2,0
same,number of time points,FGFR3,0
same,number of time points,FGR,0
O=C(CC(c1ccccc1)C(C(=O)O)C(=O)O)c1ccc(C(F)(F)F)cc1 (stereo not given) (10 µM),number of time points,EGFR_L861Q,0
same,number of time points,EGFR_T790M,0
same,number of time points,EPHA2,0
same,number of time points,ERBB3,0
same,number of time points,[1],0
same,number of time points,ERN1,0
same,number of time points,FGFR1,0
same,number of time points,FGFR2,0
same,number of time points,FGFR3,0
same,number of time points,FGR,0
COc1ccc(COc2cc3oc(=O)c4cc(C(C)O)ccc4c3cc2OC)cc1 (stereo not given) [Palomid 529] (2.5 µM),number of time points,EGFR_L861Q,0
same,number of time points,EGFR_T790M,0
same,number of time points,EPHA2,0
same,number of time points,ERBB3,0
same,number of time points,[1],0
same,number of time points,ERN1,0
same,number of time points,FGFR1,0
same,number of time points,FGFR2,0
same,number of time points,FGFR3,0
same,number of time points,FGR,0
COc1cccc(Nc2ncnn3ccc(CN4CC[C@@H](N)[C@H](O)C4)c23)c1 (2.5 µM),number of time points,EGFR_L861Q,1
same,number of time points,EGFR_T790M,0
same,number of time points,EPHA2,0
same,number of time points,ERBB3,3
same,number of time points,[1],3
same,number of time points,ERN1,0
same,number of time points,FGFR1,0
same,number of time points,FGFR2,2
same,number of time points,FGFR3,0
same,number of time points,FGR,0
O=c1cc(-c2ccc(O)cc2)oc2cc(O)c([C@@H]3O[C@H](CO)[C@@H](O)[C@H](O)[C@H]3O)c(O)c12 [Isovitexin] (10 µM),number of time points,EGFR_L861Q,0
same,number of time points,EGFR_T790M,0
same,number of time points,EPHA2,0
same,number of time points,ERBB3,0
same,number of time points,[1],0
same,number of time points,ERN1,0
same,number of time points,FGFR1,0
same,number of time points,FGFR2,0
same,number of time points,FGFR3,0
same,number of time points,FGR,0
C=CC(=O)Nc1cc(C(=O)NC)cc(-c2n[nH]c3ccccc23)c1 (10 µM),number of time points,EGFR_L861Q,0
same,number of time points,EGFR_T790M,0
same,number of time points,EPHA2,0
same,number of time points,ERBB3,0
same,number of time points,[1],2
same,number of time points,ERN1,0
same,number of time points,FGFR1,0
same,number of time points,FGFR2,0
same,number of time points,FGFR3,0
same,number of time points,FGR,0
CN(C)CCCNc1ccn2ncc(-c3ccc4c(c3)OCO4)c2n1 (10 µM),number of time points,EGFR_L861Q,0
same,number of time points,EGFR_T790M,0
same,number of time points,EPHA2,0
same,number of time points,ERBB3,0
same,number of time points,[1],0
same,number of time points,ERN1,0
same,number of time points,FGFR1,0
same,number of time points,FGFR2,0
same,number of time points,FGFR3,0
same,number of time points,FGR,0
COc1ccc2c(c1)C[C@H](C(=O)Nc1ccc(-c3cn[nH]c3)cc1OCCN(C)C)CO2 [Chroman 1] (10 µM),number of time points,EGFR_L861Q,0
same,number of time points,EGFR_T790M,0
same,number of time points,EPHA2,0
same,number of time points,ERBB3,0
same,number of time points,[1],0
same,number of time points,ERN1,0
same,number of time points,FGFR1,0
same,number of time points,FGFR2,0
same,number of time points,FGFR3,0
same,number of time points,FGR,0
CCS(=O)(=O)c1ccc(Oc2cc(O[C@@H](C)CO)cc(C(=O)Nc3ccn(C)n3)c2)cn1 (10 µM),number of time points,EGFR_L861Q,0
same,number of time points,EGFR_T790M,0
same,number of time points,EPHA2,0
same,number of time points,ERBB3,0
same,number of time points,[1],0
same,number of time points,ERN1,0
same,number of time points,FGFR1,0
same,number of time points,FGFR2,0
same,number of time points,FGFR3,0
same,number of time points,FGR,0
Cc1c(Br)c(Br)c2c3c1nc(N1CCNCC1)n3CCC2 [SEL120-34A (monohydrochloride)] (2.5 µM),number of time points,EGFR_L861Q,0
same,number of time points,EGFR_T790M,0
same,number of time points,EPHA2,0
same,number of time points,ERBB3,0
same,number of time points,[1],0
same,number of time points,ERN1,0
same,number of time points,FGFR1,0
same,number of time points,FGFR2,0
same,number of time points,FGFR3,0
same,number of time points,FGR,0
CC(C)[C@H](CO)Nc1nc(Nc2ccc(C(=O)O)c(Cl)c2)c2ncn(C(C)C)c2n1 [Purvalanol B] (10 µM),number of time points,EGFR_L861Q,0
same,number of time points,EGFR_T790M,0
same,number of time points,EPHA2,0
same,number of time points,ERBB3,0
same,number of time points,[1],0
same,number of time points,ERN1,0
same,number of time points,FGFR1,0
same,number of time points,FGFR2,0
same,number of time points,FGFR3,0
same,number of time points,FGR,0
Cc1cccc(-c2[nH]c(C(C)(C)C)nc2-c2ccc3c(c2)OCO3)n1 (2.5 µM),number of time points,EGFR_L861Q,0
same,number of time points,EGFR_T790M,0
same,number of time points,EPHA2,0
same,number of time points,ERBB3,0
same,number of time points,[1],0
same,number of time points,ERN1,0
same,number of time points,FGFR1,0
same,number of time points,FGFR2,0
same,number of time points,FGFR3,0
same,number of time points,FGR,0
O=C1NCCSc2c1sc1ccc(O)cc21 (2.5 µM),number of time points,EGFR_L861Q,0
same,number of time points,EGFR_T790M,0
same,number of time points,EPHA2,0
same,number of time points,ERBB3,0
same,number of time points,[1],0
same,number of time points,ERN1,0
same,number of time points,FGFR1,0
same,number of time points,FGFR2,1
same,number of time points,FGFR3,0
same,number of time points,FGR,0
O=c1cc(-c2ccc(O)cc2)oc2cc(O)c(O)c(O)c12 [Scutellarein] (10 µM),number of time points,EGFR_L861Q,0
same,number of time points,EGFR_T790M,0
same,number of time points,EPHA2,0
same,number of time points,ERBB3,0
same,number of time points,[1],0
same,number of time points,ERN1,0
same,number of time points,FGFR1,0
same,number of time points,FGFR2,0
same,number of time points,FGFR3,0
same,number of time points,FGR,0
CC(C)(C)NS(=O)(=O)c1cncc(-c2cc(F)c3nc(N)nn3c2)c1 (10 µM),number of time points,EGFR_L861Q,0
same,number of time points,EGFR_T790M,0
same,number of time points,EPHA2,0
same,number of time points,ERBB3,0
same,number of time points,[1],0
same,number of time points,ERN1,0
same,number of time points,FGFR1,0
same,number of time points,FGFR2,0
same,number of time points,FGFR3,0
same,number of time points,FGR,0
C1=N/C2=N/c3ccc(OCCN4CCCC4)c(c3)COC/C=C/COCc3cccc(c3)C(=C1)N2 [Pacritinib] (2.5 µM),number of time points,EGFR_L861Q,0
same,number of time points,EGFR_T790M,0
same,number of time points,EPHA2,0
same,number of time points,ERBB3,0
same,number of time points,[1],0
same,number of time points,ERN1,0
same,number of time points,FGFR1,0
same,number of time points,FGFR2,0
same,number of time points,FGFR3,0
same,number of time points,FGR,0
COc1ccc(C(=O)c2cn(C(C)C)c3ncnc(N)c23)cc1NC(=O)Nc1ccc(Cl)cc1Cl (10 µM),number of time points,EGFR_L861Q,0
same,number of time points,EGFR_T790M,0
same,number of time points,EPHA2,0
same,number of time points,ERBB3,0
same,number of time points,[1],0
same,number of time points,ERN1,0
same,number of time points,FGFR1,4
same,number of time points,FGFR2,0
same,number of time points,FGFR3,0
same,number of time points,FGR,0

# 6 successive records from above:
structure (smiles),measurement,setting,value
O=c1cc(-c2ccc(O)cc2)oc2cc(O)c([C@@H]3O[C@H](CO)[C@@H](O)[C@H](O)[C@H]3O)c(O)c12 [Isovitexin] (10 µM),number of time points,EGFR_T790M,0
same,number of time points,EPHA2,0
same,number of time points,ERBB3,0
same,number of time points,[1],0
same,number of time points,ERN1,0
same,number of time points,FGFR1,0

# Reformatted with bars between the fields: entries from further up
structure (smiles) | measurement | setting | value
COc1ccc2c(c1)C[C@H](C(=O)Nc1ccc(-c3cn[nH]c3)cc1OCCN(C)C)CO2 [Chroman 1] (10 µM) | number of time points | [1] | 0
same | number of time points | ERN1 | 0
same | number of time points | FGFR1 | 0
same | number of time points | FGFR2 | 0
same | number of time points | FGFR3 | 0

# — the supplement of paper PMC12823440, “Inhibitors supercharge kinase turnover through native proteolytic circuits” (Nature, 2025)
